# Test results: PubChem BioAssay AID504444 (National Center for Advancing Translational Sciences (NCATS), 2011)
# Screen size: about 360,000 compounds; about 7,500 (2.1%) were called active. The inconclusive results got no clear call from the source; some entries with a clear call stand among them for comparison. Calls follow the shape of the dose curve; as a rule, active = well fitted inhibition curve with a large enough effect; inconclusive = small, poorly fitted or top-dose-only effect, or effect the other way; inactive = flat fitted curve, though single readings scatter. Potencies beside an inconclusive call are fits to weak or partial responses and may not hold up. Some structures have more than one record in an assay (separate samples or runs), and their calls can disagree.
# Assay: Nrf2 qHTS screen for inhibitors; also: nearly all actives have a fitted effect of over 60% in size
# Settings: A549 ARE-Fluc reporter, luciferase luminescence, 18-24 h; series mostly up to 46 µM
# Summary of the method: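 Reporter: ARE-Fluc in A549. Exposure: 18-24 h, 37 °C, 5% CO2, 5% FBS OPTI-MEM. Readouts: fluorescent cytotoxicity (CellTiter-Fluor), then luminescent Nrf2 signal after BugLite.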
# Potency is read from the fitted curve at half-maximal effect.
row,Structure (SMILES),Potency
1,COc1ccc2c(c1)c1c(c(=O)n(-c3ccccc3)c(=O)n1CC(=O)Nc1ccc(F)cc1)n2C,"inconclusive: 29.1 µM [activator, single point]"
2,O=S1(=O)CCN(Cc2csc(-c3cccs3)n2)CC1,"inconclusive: 1.3 µM [activator, full curve, poor fit]"
3,Nc1[nH]n2c(=O)cc(-c3ccccc3)nc2c1N=Nc1ccc(S(N)(=O)=O)cc1,"inconclusive: 32.6 µM [falling, single point]"
4,Fc1cccc(Cl)c1CNc1n[nH]c(-c2ccco2)n1,"inconclusive: 8.2 µM [activator, partial curve]"
5,CCN(CC)C(=O)C1CCCN(Cc2ccccc2)C1 (configuration not stated),inactive
6,Cn1c(C(=O)NCc2ccccn2)cc2c(=O)n3ccccc3nc21,"inconclusive: 1.64 µM [activator, full curve]"
7,CCC(C)c1ccc(O)c(N)c1 (configuration not stated),"inconclusive: 0.82 µM [falling, full curve, poor fit]"
8,CC1C(=O)Nc2ccc(S(=O)(=O)Nc3ccccc3Br)cc2NC1=O (configuration not stated),active: 16.4 µM
9,COc1cccc(CNC(=O)CCSCc2ccccc2F)c1,inactive
10,O=S(=O)(c1ccccc1)c1ncc(C(F)(F)F)cc1Cl,"inconclusive: 23.1 µM [falling, single point]"
11,CCOC(=O)N1CCN(Cc2nc3cc(NC(=O)c4cccs4)ccc3n2C)CC1,"inconclusive: 32.6 µM [falling, single point]"
12,CN(CC(=O)Nc1ccc(F)cc1)C(=O)c1cccc(S(=O)(=O)N2CCN(c3ccc(F)cc3)CC2)c1,active: 20.6 µM
13,COc1ccc(OC)c(NC(=O)c2cccc(Cn3cc(Br)c([N+](=O)[O-])n3)c2)c1,"inconclusive: 13 µM [falling, partial curve, poor fit]"
14,O=C(Nc1ccc(F)cc1F)c1ccc2c(c1)[nH]c(=O)n2Cc1ccc(F)cc1,"inconclusive: 29.1 µM [falling, single point]"
15,O=C(NN=Cc1c(O)ccc2ccccc12)c1ccc2c(c1)OCO2,active: 16.4 µM
16,Cc1cccc(N2C(=O)CC(N3CCN(c4ccccn4)CC3)C2=O)c1 (configuration not stated),inactive
17,O=C(C1CCN(S(=O)(=O)c2ccc(Br)s2)CC1)N1CCCCC1,"inconclusive: 25.9 µM [falling, partial curve]"
18,CCOc1cccc(/C=N/NC(=S)Nc2ccccc2[N+](=O)[O-])c1O,"inconclusive: 32.6 µM [falling, single point]"
19,CCOc1ccc(CCNC(=O)Nc2cccc(OC)c2)cc1OCC,"inconclusive: 5.17 µM [activator, partial curve, poor fit]"
20,O=C(NCc1ccccc1)c1onc(CS(=O)(=O)c2ccc(Cl)cc2)c1C(=O)NCc1ccccc1,"inconclusive: 23.1 µM [falling, partial curve, poor fit]"
21,N#CCSc1nc(Nc2ccc3c(c2)OCO3)c2ccccc2n1,"inconclusive: 20.6 µM [falling, single point]"
22,Cc1ccc(-c2nc(S(=O)(=O)c3ccc(Cl)cc3)c(N3CCCCC3)o2)cc1,"inconclusive: 29.1 µM [falling, single point]"
23,Cc1nn(C)c2ncc(C(=O)c3ccccc3O)cc12,inactive

row,Structure (SMILES),Potency
1,CCC(C)(C)n1nnnc1C(c1cc2cc(C)cc(C)c2[nH]c1=O)N1CCCC1 (configuration not stated),inactive
2,C[C@H](CO)N1C[C@H](C)[C@@H](CN(C)CC2CCCCC2)Oc2c(NC(=O)Cc3ccccc3)cccc2C1=O,active: 23.1 µM
3,CCc1ccc(NS(=O)(=O)c2cc3c(cc2C)n(C)c(=O)c(=O)n3C)cc1,"inconclusive: 20.6 µM [falling, single point]"
4,Cc1nc(N2CCN(Cc3ccccc3)CC2)nc2c1C(=O)CCC2,"inconclusive: 23.1 µM [falling, single point]"
5,CN(C)c1ccc(S(=O)(=O)N2CCCCC2)cc1NC(=O)CN1C(=O)NC2(CCCC2)C1=O,inactive
6,Nc1nncn1C(=O)c1cc(Br)ccc1Cl,"inconclusive: 29.1 µM [activator, single point]"
7,COc1ccc(Cl)cc1C(=O)Nc1ccc2oc(-c3ccc(C(C)(C)C)cc3)nc2c1,"inconclusive: 20.6 µM [activator, partial curve]"
8,CCOc1ccc(S(=O)(=O)N2CCN(S(=O)(=O)c3ccc(C(C)=O)cc3)CC2)cc1,inactive
9,O=C1C=CC(=O)N1c1ccc2c(c1)Cc1cc(F)ccc1-2,inactive
10,CC(Oc1ccc(F)cc1)C(=O)Nc1ccc2ccccc2c1 (configuration not stated),"inconclusive: 18.4 µM [activator, partial curve]"
11,CCN1CCN(C(=O)c2ccc3c(c2)N(Cc2ccccc2)C(=O)c2ccccc2S3=O)CC1 (configuration not stated),"inconclusive: 1.3 µM [falling, full curve, poor fit]"
12,CCC(=O)Oc1ccc(-c2cnc3ccccc3n2)cc1,"inconclusive: 9.2 µM [activator, partial curve, poor fit]"
13,CN(C)c1ccc(-c2nnc(-c3ccc(S(=O)(=O)C(F)F)cc3)o2)cc1,"inconclusive: 3.26 µM [activator, single point]"
14,COc1ccc(CCNC(=O)c2cc([N+](=O)[O-])ccc2N2CCOCC2)cc1,inactive
15,Cc1ccc2nc(NC(=O)CSc3nc(=O)n(CCCN(C)C)c4c3CCC4)sc2c1,"inconclusive: 10.3 µM [activator, partial curve]"
16,Cc1ccnc(NC(=O)c2cc(S(=O)(=O)N3CCCCC3)ccc2Cl)c1,inactive
17,S=c1[nH]nc(-c2ccco2)n1/N=C/c1ccc(Cl)cc1Cl,"inconclusive: 29.1 µM [falling, single point]"
18,C=C(C)CN(CC)c1ccc(N2C(=O)CCCC2=O)cc1[N+](=O)[O-],"inconclusive: 11.6 µM [falling, partial curve, poor fit]"
19,COc1ccc(CCNC(=O)/C=C/c2ccc3ccccc3n2)cc1OC,"inconclusive: 23.1 µM [falling, partial curve]"
20,CCOC(=O)Nc1ccc(C)cc1C,"inconclusive: 1.12 µM [falling, partial curve, poor fit]"
21,CCCc1cc(N2CCN(C(=O)c3ccco3)CC2)n2c(nc3ccccc32)c1C#N,"inconclusive: 18.4 µM [falling, partial curve, poor fit]"
22,Cc1cc(C(=O)Nc2ccc(S(=O)(=O)N3CCOCC3)cc2)ccc1[N+](=O)[O-],"inconclusive: 25.9 µM [falling, single point]"
23,O=C(C[n+]1ccc(C(=O)c2ccccc2)cc1)Nc1ccc(C(F)(F)F)cc1,"inconclusive: 25.9 µM [activator, single point]"

row,Structure (SMILES),Potency
1,CCOc1cc(/C=N\NC(=O)c2ccc(NC(=O)C(C)(C)C)cc2)ccc1OC(=O)c1cccc(C)c1,active: 5.17 µM
2,COc1cnc(SCCC(F)=C(F)F)[nH]c1=O,inactive
3,COc1cc(C=CC(=O)c2cc(OC)c(OC)c(OC)c2)cc(OC)c1OC,active: 23.1 µM
4,COc1cc(NS(=O)(=O)c2cc3[nH]c(=O)c(=O)[nH]c3cc2C)cc(OC)c1OC,inactive
5,CC(=O)Nc1cccc(-c2cnc(N)c(C(=O)c3cccnc3)n2)c1,active: 5.17 µM
6,COc1ccc(/C=C/C(=O)c2cc(Br)ccc(=O)c2O)cc1,"inconclusive: 29.1 µM [falling, single point]"
7,N/C(=N\OC(=O)Cc1cccs1)c1ccc(Br)cc1,"inconclusive: 20.6 µM [activator, single point]"
8,COc1cccc(NC(=O)CN(Cc2ccccc2)S(=O)(=O)c2ccc3nc(C)sc3c2)c1,"inconclusive: 29.1 µM [activator, single point]"
9,Cc1nnc(SC(C)C(=O)Nc2ccc(S(=O)(=O)NC3CCCCC3)cc2)s1 (configuration not stated),"inconclusive: 10.3 µM [falling, partial curve, poor fit]"
10,O=C(Nc1nnc(Cc2ccccc2)s1)c1ccccc1,"inconclusive: 13 µM [activator, partial curve]"
11,c1ccc(C2=Nn3c(nnc3-c3ccco3)SC2)cc1,"inconclusive: 29.1 µM [activator, single point]"
12,C/C(=N\NC(=O)COc1ccccc1)c1ccc(O)cc1,"inconclusive: 25.9 µM [activator, single point]"
13,CCOc1ccccc1C(=O)Nc1ccc2nc(N3CCN(c4ncccn4)CC3)cc(C)c2c1,"inconclusive: 11.6 µM [falling, partial curve, poor fit]"
14,Cc1cc(NC(=O)C2CC(=O)N(c3ccc(Cl)cc3)C2)no1 (configuration not stated),"inconclusive: 2.91 µM [activator, partial curve, poor fit]"
15,CC(C)(C)c1ccc(C(=O)NC(CC(=O)O)c2ccc(OC3CCCC3)cc2)cc1 (configuration not stated),"inconclusive: 29.1 µM [falling, single point]"
16,CC(C)(C)NC(=S)NC1CC1,inactive
17,CCN(C(=O)CSc1nc2cc(C(=O)OC)ccc2c(=O)n1Cc1ccco1)c1cccc(C)c1,inactive
18,COc1ccc(N2C(=O)c3ccc(C(=O)Nc4cc(OC)ccc4OC)cc3C2=O)cc1,"inconclusive: 0.0046 µM [activator, full curve, poor fit]"
19,O=C(CNC(=O)c1ccc(-c2ccccc2)cc1)Nc1cccc(CO)c1,"inconclusive: 2.91 µM [activator, full curve]"
20,CC1CCN(c2c(NCC3CCC(C(=O)Nc4ccccn4)CC3)c(=O)c2=O)CC1 (configuration not stated),"inconclusive: 16.4 µM [falling, partial curve, poor fit]"
21,O=c1c2cn[nH]c2nc(SCc2cc(=O)n3cc(Br)ccc3n2)n1-c1ccc(Br)cc1,"inconclusive: 20.6 µM [falling, single point]"

# 4 entries picked at random from those above:
row,Structure (SMILES),Potency
19,O=C(CNC(=O)c1ccc(-c2ccccc2)cc1)Nc1cccc(CO)c1,"inconclusive: 2.91 µM [activator, full curve]"
14,Cc1cc(NC(=O)C2CC(=O)N(c3ccc(Cl)cc3)C2)no1 (configuration not stated),"inconclusive: 2.91 µM [activator, partial curve, poor fit]"
6,COc1ccc(/C=C/C(=O)c2cc(Br)ccc(=O)c2O)cc1,"inconclusive: 29.1 µM [falling, single point]"
9,Cc1nnc(SC(C)C(=O)Nc2ccc(S(=O)(=O)NC3CCCCC3)cc2)s1 (configuration not stated),"inconclusive: 10.3 µM [falling, partial curve, poor fit]"
